Test results taken from publication PMC12823420.
These are yes or no findings as the source states them, for the method shown. In cells and extracts the contact can be indirect. Some entries that bind do so weakly or less than the wild type.

Biological target: V5-flag-TurboID-tagged UAP56, wild type (human) (UniProt Q13838)
Test: co-IP; anti-flag M2 IP of V5-flag-TurboID-UAP56 from K562 nuclei, western blot

B1: endogenous SARNP (K562) (protein, UniProt P82979 1-210)
chain: MATETVELHKLKLAELKQECLARGLETKGIKQDLIHRLQAYLEEHAEEEANEEDVLGDETEEEETKPIELPVKEEEPPEKTVDVAAEKKVVKITSEIPQTERMQKRAERFNVPVSLESKKAARAARFGISSVPTKGLSSDNKPMVNLDKLKERAQRFGLNVSSISRKSEDDEKLKKRKERFGIVTSSAGTGTTEDTEAKKRKRAERFGIA
  binding: binds
